Laboratory results reported in the supplement of paper PMC11546906.
Counter-ions that a name gives are not always drawn. This is one part of the list. Repeats in this data set agree poorly, so a single value says little.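 Screen of FDA-approved drugs, each combined with colistin at one-eighth of its MIC, against a multidrug-resistant mcr-1-positive clinical E. coli isolate; growth read as OD600 after 24 h. Bacteria without drug were the growth control and plain broth the blank. A combination counted as active when OD600 fell below 0.2.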

These molecules were tested on Escherichia coli 42 (mcr-1-positive clinical isolate) (assay: OD600 after 24 h growth with compound plus colistin (absorbance units (OD600)); higher = more bacterial growth (less inhibition)). Conditions: first compound 25 µM; colistin concentration 0.5 ug/mL; incubation time 24 h; 37 °C.

OD600, inactive:
OC[C@H]1OC(O)[C@H](O)[C@@H](O)[C@@H]1O (stereo partly drawn) [D-Glucose] + CCC(C)CCCC(=O)N[C@@H](CCN)C(=O)N[C@H](C(=O)N[C@@H](CCN)C(=O)N[C@H]1CCNC(=O)[C@H]([C@@H](C)O)NC(=O)[C@H](CCN)NC(=O)[C@H](CCN)NC(=O)[C@H](CC(C)C)NC(=O)[C@@H](CC(C)C)NC(=O)[C@H](CCN)NC1=O)[C@@H](C)O [colistin] 1.1
CC(=O)O[C@H]1C[C@@H]2CC[C@@H]3[C@H](CC[C@@]4(C)[C@H]3C[C@H]([N+]3(C)CCCCC3)[C@@H]4OC(C)=O)[C@@]2(C)C[C@@H]1N1CCCCC1 [Vecuronium bromide] + CCC(C)CCCC(=O)N[C@@H](CCN)C(=O)N[C@H](C(=O)N[C@@H](CCN)C(=O)N[C@H]1CCNC(=O)[C@H]([C@@H](C)O)NC(=O)[C@H](CCN)NC(=O)[C@H](CCN)NC(=O)[C@H](CC(C)C)NC(=O)[C@@H](CC(C)C)NC(=O)[C@H](CCN)NC1=O)[C@@H](C)O [colistin] 0.857
Clc1ccc2c(c1)C(N1CCNCC1)=Nc1ccccc1O2 [Amoxapine] + CCC(C)CCCC(=O)N[C@@H](CCN)C(=O)N[C@H](C(=O)N[C@@H](CCN)C(=O)N[C@H]1CCNC(=O)[C@H]([C@@H](C)O)NC(=O)[C@H](CCN)NC(=O)[C@H](CCN)NC(=O)[C@H](CC(C)C)NC(=O)[C@@H](CC(C)C)NC(=O)[C@H](CCN)NC1=O)[C@@H](C)O [colistin] 1.05
CCCC(=O)OCOC(=O)C1=C(C)NC(C)=C(C(=O)OC)C1c1cccc(Cl)c1Cl (stereo unspecified) [Clevidipine] + CCC(C)CCCC(=O)N[C@@H](CCN)C(=O)N[C@H](C(=O)N[C@@H](CCN)C(=O)N[C@H]1CCNC(=O)[C@H]([C@@H](C)O)NC(=O)[C@H](CCN)NC(=O)[C@H](CCN)NC(=O)[C@H](CC(C)C)NC(=O)[C@@H](CC(C)C)NC(=O)[C@H](CCN)NC1=O)[C@@H](C)O [colistin] 1.08
COC(=O)N[C@H](C(=O)N1CCC[C@H]1c1ncc(-c2ccc(-c3ccc(-c4cnc([C@@H]5CCCN5C(=O)[C@@H](NC(=O)OC)C(C)C)[nH]4)cc3)cc2)[nH]1)C(C)C [Daclatasvir dihydrochloride] + CCC(C)CCCC(=O)N[C@@H](CCN)C(=O)N[C@H](C(=O)N[C@@H](CCN)C(=O)N[C@H]1CCNC(=O)[C@H]([C@@H](C)O)NC(=O)[C@H](CCN)NC(=O)[C@H](CCN)NC(=O)[C@H](CC(C)C)NC(=O)[C@@H](CC(C)C)NC(=O)[C@H](CCN)NC1=O)[C@@H](C)O [colistin] 1.04
CCc1ccc(CCOc2ccc(CC3SC(=O)NC3=O)cc2)nc1 (stereo unspecified) [Pioglitazone hydrochloride] + CCC(C)CCCC(=O)N[C@@H](CCN)C(=O)N[C@H](C(=O)N[C@@H](CCN)C(=O)N[C@H]1CCNC(=O)[C@H]([C@@H](C)O)NC(=O)[C@H](CCN)NC(=O)[C@H](CCN)NC(=O)[C@H](CC(C)C)NC(=O)[C@@H](CC(C)C)NC(=O)[C@H](CCN)NC1=O)[C@@H](C)O [colistin] 0.997
C[C@@H]1C/C=C/C=C/C=C/C=C/[C@H](O[C@@H]2O[C@H](C)[C@@H](O)[C@H](N)[C@@H]2O)C[C@@H]2O[C@](O)(C[C@@H](O)C[C@H]3O[C@@H]3/C=C/C(=O)O1)C[C@H](O)[C@H]2C(=O)O [Natamycin] + CCC(C)CCCC(=O)N[C@@H](CCN)C(=O)N[C@H](C(=O)N[C@@H](CCN)C(=O)N[C@H]1CCNC(=O)[C@H]([C@@H](C)O)NC(=O)[C@H](CCN)NC(=O)[C@H](CCN)NC(=O)[C@H](CC(C)C)NC(=O)[C@@H](CC(C)C)NC(=O)[C@H](CCN)NC1=O)[C@@H](C)O [colistin] 0.967
Cc1ncc(C[n+]2csc(CCO)c2C)c(N)n1 [Thiamine hydrochloride] + CCC(C)CCCC(=O)N[C@@H](CCN)C(=O)N[C@H](C(=O)N[C@@H](CCN)C(=O)N[C@H]1CCNC(=O)[C@H]([C@@H](C)O)NC(=O)[C@H](CCN)NC(=O)[C@H](CCN)NC(=O)[C@H](CC(C)C)NC(=O)[C@@H](CC(C)C)NC(=O)[C@H](CCN)NC1=O)[C@@H](C)O [colistin] 1.35
CC[C@@H]1C(=O)OC[C@@H]1Cc1cncn1C [Pilocarpine nitrate] + CCC(C)CCCC(=O)N[C@@H](CCN)C(=O)N[C@H](C(=O)N[C@@H](CCN)C(=O)N[C@H]1CCNC(=O)[C@H]([C@@H](C)O)NC(=O)[C@H](CCN)NC(=O)[C@H](CCN)NC(=O)[C@H](CC(C)C)NC(=O)[C@@H](CC(C)C)NC(=O)[C@H](CCN)NC1=O)[C@@H](C)O [colistin] 1.17
COc1cc2nccc(Oc3ccc(NC(=O)Nc4cc(C)on4)c(Cl)c3)c2cc1OC [Tivozanib] + CCC(C)CCCC(=O)N[C@@H](CCN)C(=O)N[C@H](C(=O)N[C@@H](CCN)C(=O)N[C@H]1CCNC(=O)[C@H]([C@@H](C)O)NC(=O)[C@H](CCN)NC(=O)[C@H](CCN)NC(=O)[C@H](CC(C)C)NC(=O)[C@@H](CC(C)C)NC(=O)[C@H](CCN)NC1=O)[C@@H](C)O [colistin] 1.03
O=C(O)C1(C(=O)O)CCC1.[NH2-].[NH2-].[Pt+2] [Carboplatin] + CCC(C)CCCC(=O)N[C@@H](CCN)C(=O)N[C@H](C(=O)N[C@@H](CCN)C(=O)N[C@H]1CCNC(=O)[C@H]([C@@H](C)O)NC(=O)[C@H](CCN)NC(=O)[C@H](CCN)NC(=O)[C@H](CC(C)C)NC(=O)[C@@H](CC(C)C)NC(=O)[C@H](CCN)NC1=O)[C@@H](C)O [colistin] 1.1
COc1cc(NC(C)CCCN)c2ncccc2c1 (stereo unspecified) [Primaquine diphosphate] + CCC(C)CCCC(=O)N[C@@H](CCN)C(=O)N[C@H](C(=O)N[C@@H](CCN)C(=O)N[C@H]1CCNC(=O)[C@H]([C@@H](C)O)NC(=O)[C@H](CCN)NC(=O)[C@H](CCN)NC(=O)[C@H](CC(C)C)NC(=O)[C@@H](CC(C)C)NC(=O)[C@H](CCN)NC1=O)[C@@H](C)O [colistin] 1.06
CN(C)CCn1nnnc1SCC1=C(C(=O)O)N2C(=O)[C@@H](NC(=O)Cc3csc(N)n3)[C@H]2SC1 [Cefotiam hydrochloride] + CCC(C)CCCC(=O)N[C@@H](CCN)C(=O)N[C@H](C(=O)N[C@@H](CCN)C(=O)N[C@H]1CCNC(=O)[C@H]([C@@H](C)O)NC(=O)[C@H](CCN)NC(=O)[C@H](CCN)NC(=O)[C@H](CC(C)C)NC(=O)[C@@H](CC(C)C)NC(=O)[C@H](CCN)NC1=O)[C@@H](C)O [colistin] 1.08
CC[C@@H]1C(=O)OC[C@@H]1Cc1cncn1C [Pilocarpine Hydrochloride] + CCC(C)CCCC(=O)N[C@@H](CCN)C(=O)N[C@H](C(=O)N[C@@H](CCN)C(=O)N[C@H]1CCNC(=O)[C@H]([C@@H](C)O)NC(=O)[C@H](CCN)NC(=O)[C@H](CCN)NC(=O)[C@H](CC(C)C)NC(=O)[C@@H](CC(C)C)NC(=O)[C@H](CCN)NC1=O)[C@@H](C)O [colistin] 0.988
CC(=O)O[C@H]1CC[C@@]2(C)C(=CC[C@@H]3[C@@H]2CC[C@]2(C)C(c4cccnc4)=CC[C@@H]32)C1 [Abiraterone Acetate] + CCC(C)CCCC(=O)N[C@@H](CCN)C(=O)N[C@H](C(=O)N[C@@H](CCN)C(=O)N[C@H]1CCNC(=O)[C@H]([C@@H](C)O)NC(=O)[C@H](CCN)NC(=O)[C@H](CCN)NC(=O)[C@H](CC(C)C)NC(=O)[C@@H](CC(C)C)NC(=O)[C@H](CCN)NC1=O)[C@@H](C)O [colistin] 0.924
CCOc1nc2cccc(C(=O)O)c2n1Cc1ccc(-c2ccccc2-c2noc(=O)[nH]2)cc1 [Azilsartan] + CCC(C)CCCC(=O)N[C@@H](CCN)C(=O)N[C@H](C(=O)N[C@@H](CCN)C(=O)N[C@H]1CCNC(=O)[C@H]([C@@H](C)O)NC(=O)[C@H](CCN)NC(=O)[C@H](CCN)NC(=O)[C@H](CC(C)C)NC(=O)[C@@H](CC(C)C)NC(=O)[C@H](CCN)NC1=O)[C@@H](C)O [colistin] 1.16
CCOC(=O)c1ncn2c1CN(C)C(=O)c1cc(F)ccc1-2 [Flumazenil] + CCC(C)CCCC(=O)N[C@@H](CCN)C(=O)N[C@H](C(=O)N[C@@H](CCN)C(=O)N[C@H]1CCNC(=O)[C@H]([C@@H](C)O)NC(=O)[C@H](CCN)NC(=O)[C@H](CCN)NC(=O)[C@H](CC(C)C)NC(=O)[C@@H](CC(C)C)NC(=O)[C@H](CCN)NC1=O)[C@@H](C)O [colistin] 1.09
CC(C)(C)NCC(O)COc1cccc2c1CC(O)C(O)C2 (stereo unspecified) [Nadolol] + CCC(C)CCCC(=O)N[C@@H](CCN)C(=O)N[C@H](C(=O)N[C@@H](CCN)C(=O)N[C@H]1CCNC(=O)[C@H]([C@@H](C)O)NC(=O)[C@H](CCN)NC(=O)[C@H](CCN)NC(=O)[C@H](CC(C)C)NC(=O)[C@@H](CC(C)C)NC(=O)[C@H](CCN)NC1=O)[C@@H](C)O [colistin] 0.84
C#CC1(O)CC[C@H]2[C@@H]3CCC4=CC(=O)CC[C@@H]4[C@H]3CC[C@@]21CC (stereo partly specified) [Norgestrel] + CCC(C)CCCC(=O)N[C@@H](CCN)C(=O)N[C@H](C(=O)N[C@@H](CCN)C(=O)N[C@H]1CCNC(=O)[C@H]([C@@H](C)O)NC(=O)[C@H](CCN)NC(=O)[C@H](CCN)NC(=O)[C@H](CC(C)C)NC(=O)[C@@H](CC(C)C)NC(=O)[C@H](CCN)NC1=O)[C@@H](C)O [colistin] 1
CCCN(CCC)CCc1cccc2c1CC(=O)N2 [Ropinirole hydrochloride] + CCC(C)CCCC(=O)N[C@@H](CCN)C(=O)N[C@H](C(=O)N[C@@H](CCN)C(=O)N[C@H]1CCNC(=O)[C@H]([C@@H](C)O)NC(=O)[C@H](CCN)NC(=O)[C@H](CCN)NC(=O)[C@H](CC(C)C)NC(=O)[C@@H](CC(C)C)NC(=O)[C@H](CCN)NC1=O)[C@@H](C)O [colistin] 1.04
CN1CCC(=C2c3ccccc3C=Cc3ccccc32)CC1 [Cyproheptadine hydrochloride sesquihydrate] + CCC(C)CCCC(=O)N[C@@H](CCN)C(=O)N[C@H](C(=O)N[C@@H](CCN)C(=O)N[C@H]1CCNC(=O)[C@H]([C@@H](C)O)NC(=O)[C@H](CCN)NC(=O)[C@H](CCN)NC(=O)[C@H](CC(C)C)NC(=O)[C@@H](CC(C)C)NC(=O)[C@H](CCN)NC1=O)[C@@H](C)O [colistin] 1.15

Fetched one by one from above:
OD600, inactive:
CC(C)(C)NCC(O)COc1cccc2c1CC(O)C(O)C2 (stereo unspecified) [Nadolol] + CCC(C)CCCC(=O)N[C@@H](CCN)C(=O)N[C@H](C(=O)N[C@@H](CCN)C(=O)N[C@H]1CCNC(=O)[C@H]([C@@H](C)O)NC(=O)[C@H](CCN)NC(=O)[C@H](CCN)NC(=O)[C@H](CC(C)C)NC(=O)[C@@H](CC(C)C)NC(=O)[C@H](CCN)NC1=O)[C@@H](C)O [colistin] 0.84
CCOC(=O)c1ncn2c1CN(C)C(=O)c1cc(F)ccc1-2 [Flumazenil] + CCC(C)CCCC(=O)N[C@@H](CCN)C(=O)N[C@H](C(=O)N[C@@H](CCN)C(=O)N[C@H]1CCNC(=O)[C@H]([C@@H](C)O)NC(=O)[C@H](CCN)NC(=O)[C@H](CCN)NC(=O)[C@H](CC(C)C)NC(=O)[C@@H](CC(C)C)NC(=O)[C@H](CCN)NC1=O)[C@@H](C)O [colistin] 1.09
